This is an account of results in PMC10822669.

Protein sequences, listed by entry. Tags and fused reporters are not part of them.
UniProt P46935: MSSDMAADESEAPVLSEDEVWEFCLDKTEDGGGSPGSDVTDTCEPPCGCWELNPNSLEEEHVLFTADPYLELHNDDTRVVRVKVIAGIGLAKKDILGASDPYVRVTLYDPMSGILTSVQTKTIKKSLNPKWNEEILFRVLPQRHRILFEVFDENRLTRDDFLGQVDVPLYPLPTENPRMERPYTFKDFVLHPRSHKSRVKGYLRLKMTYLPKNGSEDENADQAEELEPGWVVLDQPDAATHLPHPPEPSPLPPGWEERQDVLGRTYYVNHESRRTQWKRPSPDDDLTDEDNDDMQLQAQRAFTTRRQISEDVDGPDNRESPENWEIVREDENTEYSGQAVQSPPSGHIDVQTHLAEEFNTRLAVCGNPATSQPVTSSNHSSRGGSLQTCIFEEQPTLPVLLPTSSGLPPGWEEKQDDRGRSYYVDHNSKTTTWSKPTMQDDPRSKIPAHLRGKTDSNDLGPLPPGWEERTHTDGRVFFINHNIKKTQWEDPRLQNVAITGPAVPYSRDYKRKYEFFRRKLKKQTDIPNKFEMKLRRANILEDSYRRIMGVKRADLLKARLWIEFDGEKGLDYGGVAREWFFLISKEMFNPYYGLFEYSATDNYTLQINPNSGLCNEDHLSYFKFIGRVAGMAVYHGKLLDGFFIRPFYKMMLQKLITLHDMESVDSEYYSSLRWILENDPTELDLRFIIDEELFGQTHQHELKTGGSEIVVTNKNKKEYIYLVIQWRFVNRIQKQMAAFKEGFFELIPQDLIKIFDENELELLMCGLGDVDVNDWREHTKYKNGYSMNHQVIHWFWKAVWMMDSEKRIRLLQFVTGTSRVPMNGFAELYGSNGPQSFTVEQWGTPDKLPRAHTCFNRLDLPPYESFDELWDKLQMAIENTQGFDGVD
UniProt Q9WTV6: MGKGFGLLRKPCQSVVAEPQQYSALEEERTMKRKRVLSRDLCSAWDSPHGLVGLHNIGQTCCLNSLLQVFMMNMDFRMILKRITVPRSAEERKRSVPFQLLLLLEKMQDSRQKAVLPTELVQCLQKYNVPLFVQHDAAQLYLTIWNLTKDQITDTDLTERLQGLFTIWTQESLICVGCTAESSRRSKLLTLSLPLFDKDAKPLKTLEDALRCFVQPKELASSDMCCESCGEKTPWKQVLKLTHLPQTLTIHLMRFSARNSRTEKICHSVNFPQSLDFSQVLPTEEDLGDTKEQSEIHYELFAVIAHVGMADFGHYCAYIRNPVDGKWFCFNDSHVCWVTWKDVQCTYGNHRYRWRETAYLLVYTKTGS

These are yes or no findings as the source states them, for the method shown. In cells and extracts the contact can be indirect. Some results given as binding are weak or reduced against the parent protein; the word gives no strength.

The target of experiment [1] is T1, colony stimulating factor 1 receptor (CSF1R), exogenously expressed in HEK293T cells (not stated (human or mouse cDNA cloned)) (UniProt P09581).
T1 sequence: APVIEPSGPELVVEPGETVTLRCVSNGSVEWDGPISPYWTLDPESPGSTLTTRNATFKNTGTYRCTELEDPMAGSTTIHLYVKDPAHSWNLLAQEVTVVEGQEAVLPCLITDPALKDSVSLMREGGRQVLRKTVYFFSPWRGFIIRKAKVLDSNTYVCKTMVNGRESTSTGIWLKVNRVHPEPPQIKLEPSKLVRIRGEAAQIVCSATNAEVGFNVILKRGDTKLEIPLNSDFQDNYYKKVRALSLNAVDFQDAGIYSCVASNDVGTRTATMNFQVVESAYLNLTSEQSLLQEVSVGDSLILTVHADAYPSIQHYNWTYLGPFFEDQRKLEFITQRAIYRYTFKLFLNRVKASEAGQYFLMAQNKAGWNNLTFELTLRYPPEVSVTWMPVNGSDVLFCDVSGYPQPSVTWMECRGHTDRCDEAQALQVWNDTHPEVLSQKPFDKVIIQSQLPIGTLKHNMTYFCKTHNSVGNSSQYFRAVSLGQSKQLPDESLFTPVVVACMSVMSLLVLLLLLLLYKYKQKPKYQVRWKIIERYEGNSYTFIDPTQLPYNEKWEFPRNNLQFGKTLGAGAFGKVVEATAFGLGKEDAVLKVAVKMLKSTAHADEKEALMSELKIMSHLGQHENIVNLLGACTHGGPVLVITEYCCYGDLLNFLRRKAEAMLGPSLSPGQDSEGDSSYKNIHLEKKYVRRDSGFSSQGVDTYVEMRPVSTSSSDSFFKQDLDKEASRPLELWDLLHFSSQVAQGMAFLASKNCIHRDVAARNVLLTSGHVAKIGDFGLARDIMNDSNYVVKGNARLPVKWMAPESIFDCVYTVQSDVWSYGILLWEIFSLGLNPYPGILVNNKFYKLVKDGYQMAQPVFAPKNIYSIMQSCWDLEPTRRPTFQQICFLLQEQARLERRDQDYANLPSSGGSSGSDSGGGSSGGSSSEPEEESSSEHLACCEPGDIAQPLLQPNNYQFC
The experiment in a line: co-IP; HEK293T cells transfected for 24 h with CSF1R and NEDD4 in the presence of increasing USP18; co-IP followed by western blot.

In experiment [2] the target is T1, colony stimulating factor 1 receptor (CSF1R), exogenously expressed in HEK293T cells (not stated (human or mouse cDNA cloned)). The experiment is described as follows: co-IP; HEK293T cells transfected for 24 h; lysis in 25 mM Tris-HCl pH 8.0, 150 mM NaCl, 1 mM EDTA, 0.5% Igepal CA-630; IP 1-2 h with FLAG M2 affinity gel or primary antibodies and protein G/A agarose; western blot; reciprocal for NEDD4 and CSF1R.

Experiment [3] deals with NEDD4, exogenously expressed in HEK293T cells (not stated (human or mouse cDNA cloned)) (UniProt P46935). Described as above.

With “NEDD4, exogenously expressed in HEK293T cells (from UniProt P46935 1-887) (enzyme)”, the binding result in experiment [1] and in experiment [2] was “binds” each time.
With “USP18, exogenously expressed in HEK293T cells (from UniProt Q9WTV6 1-368) (enzyme)”, the binding entry in experiment [3] is listed as “binds”.
